Source: paper doi:10.1101/2025.07.31.668009
Results are given in words; binding and its absence hold for the method and conditions named. A result given as binding can be weak or reduced; the word gives no strength. Tags and fused reporters may be left off the sequences shown. For part of these data: Binding seen in cells or lysates may run through a third protein. Values belong to the molecule of their own block, whether it stands above or below them.

Experiments:
[1] = target: T1, ERL1CD (cytoplasmic domain of ERECTA-LIKE 1), BiFC fusion (Arabidopsis) (UniProt C0LGW6); test: split reporter
T1 sequence: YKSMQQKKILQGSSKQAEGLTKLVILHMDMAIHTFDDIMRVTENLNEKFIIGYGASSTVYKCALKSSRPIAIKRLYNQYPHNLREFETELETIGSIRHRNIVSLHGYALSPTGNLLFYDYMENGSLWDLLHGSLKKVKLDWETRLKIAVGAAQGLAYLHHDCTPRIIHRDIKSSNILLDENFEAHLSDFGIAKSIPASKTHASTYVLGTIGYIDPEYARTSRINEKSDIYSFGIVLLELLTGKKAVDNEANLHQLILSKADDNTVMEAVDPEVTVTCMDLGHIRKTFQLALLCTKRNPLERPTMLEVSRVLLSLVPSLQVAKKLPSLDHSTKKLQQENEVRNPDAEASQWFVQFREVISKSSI

[2] = target: T2, ERL2CD (cytoplasmic domain of ERL2), BiFC fusion (Arabidopsis) (UniProt Q6XAT2); test: split reporter
T2 sequence: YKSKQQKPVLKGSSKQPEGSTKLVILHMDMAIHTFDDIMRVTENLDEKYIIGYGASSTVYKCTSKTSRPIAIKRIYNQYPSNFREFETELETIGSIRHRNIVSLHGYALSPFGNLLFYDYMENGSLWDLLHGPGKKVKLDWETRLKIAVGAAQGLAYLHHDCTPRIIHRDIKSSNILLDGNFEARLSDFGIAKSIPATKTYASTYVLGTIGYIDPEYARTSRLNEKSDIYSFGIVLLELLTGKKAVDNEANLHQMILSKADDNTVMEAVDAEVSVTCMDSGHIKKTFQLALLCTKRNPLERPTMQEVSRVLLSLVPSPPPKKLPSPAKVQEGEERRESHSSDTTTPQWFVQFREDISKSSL

[3] = target: T3, ERECTACD (cytoplasmic domain of ERECTA), BiFC fusion (Arabidopsis) (UniProt Q42371); test: split reporter
T3 sequence: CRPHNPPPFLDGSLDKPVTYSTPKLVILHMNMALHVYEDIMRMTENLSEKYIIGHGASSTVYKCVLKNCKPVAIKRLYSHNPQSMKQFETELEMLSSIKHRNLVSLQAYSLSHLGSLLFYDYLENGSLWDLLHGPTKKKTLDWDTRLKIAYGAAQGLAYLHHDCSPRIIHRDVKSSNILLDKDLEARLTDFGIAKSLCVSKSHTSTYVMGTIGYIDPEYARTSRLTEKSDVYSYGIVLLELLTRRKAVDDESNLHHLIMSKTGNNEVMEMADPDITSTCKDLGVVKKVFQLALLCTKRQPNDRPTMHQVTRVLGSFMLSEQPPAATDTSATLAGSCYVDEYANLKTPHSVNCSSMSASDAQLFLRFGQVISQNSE

[4] = target: T4, ERECTACD (cytoplasmic domain of ERECTA), yeast two-hybrid fusion (Arabidopsis) (UniProt Q42371); test: two-hybrid
T4 sequence: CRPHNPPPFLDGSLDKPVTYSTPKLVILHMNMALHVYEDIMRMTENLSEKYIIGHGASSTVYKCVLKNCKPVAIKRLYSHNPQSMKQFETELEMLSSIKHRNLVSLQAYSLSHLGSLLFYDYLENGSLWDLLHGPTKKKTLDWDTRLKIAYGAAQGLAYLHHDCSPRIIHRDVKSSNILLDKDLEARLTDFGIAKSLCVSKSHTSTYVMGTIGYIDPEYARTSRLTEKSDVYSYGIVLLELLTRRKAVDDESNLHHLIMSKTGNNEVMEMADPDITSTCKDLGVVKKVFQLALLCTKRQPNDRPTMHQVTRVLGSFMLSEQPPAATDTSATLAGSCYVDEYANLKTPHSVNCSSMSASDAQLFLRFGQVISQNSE

[5] = target: T5, ERL1CD (cytoplasmic domain of ERECTA-LIKE 1), yeast two-hybrid fusion (Arabidopsis) (UniProt C0LGW6); test: two-hybrid
T5 sequence: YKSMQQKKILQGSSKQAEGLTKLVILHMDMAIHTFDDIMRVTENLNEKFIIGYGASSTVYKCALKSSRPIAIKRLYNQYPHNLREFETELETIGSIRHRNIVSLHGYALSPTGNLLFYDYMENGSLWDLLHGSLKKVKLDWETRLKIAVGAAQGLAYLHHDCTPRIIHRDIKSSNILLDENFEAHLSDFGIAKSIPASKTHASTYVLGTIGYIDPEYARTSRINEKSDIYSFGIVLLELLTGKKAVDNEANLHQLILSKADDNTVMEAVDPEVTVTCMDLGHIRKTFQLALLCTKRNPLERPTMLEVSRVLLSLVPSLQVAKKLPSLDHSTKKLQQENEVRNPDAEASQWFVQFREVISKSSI

[6] = target: T6, ERL2CD (cytoplasmic domain of ERL2), yeast two-hybrid fusion (Arabidopsis) (UniProt Q6XAT2); test: two-hybrid
T6 sequence: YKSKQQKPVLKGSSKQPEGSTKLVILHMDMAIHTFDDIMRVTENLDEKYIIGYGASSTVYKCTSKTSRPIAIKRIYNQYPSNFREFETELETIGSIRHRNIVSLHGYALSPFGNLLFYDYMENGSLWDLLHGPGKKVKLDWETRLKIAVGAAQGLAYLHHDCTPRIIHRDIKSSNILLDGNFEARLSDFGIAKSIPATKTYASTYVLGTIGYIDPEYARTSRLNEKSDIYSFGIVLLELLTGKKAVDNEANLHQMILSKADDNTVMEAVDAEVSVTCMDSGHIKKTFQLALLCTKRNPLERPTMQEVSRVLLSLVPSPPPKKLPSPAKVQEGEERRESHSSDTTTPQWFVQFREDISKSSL

[7] = target: T7, ERECTACD-GFP (Arabidopsis) (UniProt Q42371); test: co-IP
T7 sequence: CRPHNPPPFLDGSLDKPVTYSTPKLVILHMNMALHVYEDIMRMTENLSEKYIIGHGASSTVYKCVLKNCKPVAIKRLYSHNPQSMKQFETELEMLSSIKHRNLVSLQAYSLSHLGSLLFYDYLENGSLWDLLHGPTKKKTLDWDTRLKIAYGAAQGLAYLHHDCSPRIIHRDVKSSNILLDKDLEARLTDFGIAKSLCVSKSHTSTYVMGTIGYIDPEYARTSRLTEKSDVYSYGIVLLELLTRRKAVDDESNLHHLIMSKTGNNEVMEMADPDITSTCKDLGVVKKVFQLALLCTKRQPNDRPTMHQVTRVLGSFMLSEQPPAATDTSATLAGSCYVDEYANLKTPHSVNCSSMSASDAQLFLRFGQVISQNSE

ERL1CD-GFP (Arabidopsis) = target: T8, ERL1CD-GFP (Arabidopsis) (UniProt C0LGW6); test: co-IP
T8 sequence: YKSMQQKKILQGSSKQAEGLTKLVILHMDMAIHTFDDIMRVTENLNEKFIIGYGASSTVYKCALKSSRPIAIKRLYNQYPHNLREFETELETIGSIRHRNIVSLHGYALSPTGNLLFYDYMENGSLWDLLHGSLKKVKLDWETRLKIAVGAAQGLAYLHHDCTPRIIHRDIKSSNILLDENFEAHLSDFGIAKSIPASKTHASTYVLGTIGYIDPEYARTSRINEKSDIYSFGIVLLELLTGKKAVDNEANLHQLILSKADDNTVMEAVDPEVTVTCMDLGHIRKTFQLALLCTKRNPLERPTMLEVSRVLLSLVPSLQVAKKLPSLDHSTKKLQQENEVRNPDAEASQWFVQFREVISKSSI

ERL2CD-GFP (Arabidopsis) = target: T9, ERL2CD-GFP (Arabidopsis) (UniProt Q6XAT2); test: co-IP
T9 sequence: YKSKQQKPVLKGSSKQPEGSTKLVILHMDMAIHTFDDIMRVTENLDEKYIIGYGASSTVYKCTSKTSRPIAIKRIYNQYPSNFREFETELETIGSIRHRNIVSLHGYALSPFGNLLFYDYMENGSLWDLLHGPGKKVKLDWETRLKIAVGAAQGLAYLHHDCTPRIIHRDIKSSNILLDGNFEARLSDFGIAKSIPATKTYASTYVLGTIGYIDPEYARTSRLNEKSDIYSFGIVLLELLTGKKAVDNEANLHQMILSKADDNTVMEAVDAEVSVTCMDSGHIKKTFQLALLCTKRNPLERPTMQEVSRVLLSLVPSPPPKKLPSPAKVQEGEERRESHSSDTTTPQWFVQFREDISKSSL

AP2σ-MBP (Arabidopsis) = test: pull-down

Molecule: AP2σ (adaptor protein 2 σ subunit), BiFC fusion (Arabidopsis)
binding [1]: binds | binding [2]: binds | binding [3]: binds

Molecule: AP2σ (adaptor protein 2 σ subunit), yeast two-hybrid fusion (Arabidopsis)
binding [4]: binds | binding [5]: binds | binding [6]: binds

Molecule: AP2σ-RFP (Arabidopsis)
binding [7]: binds | binding (ERL1CD-GFP (Arabidopsis)): binds | binding (ERL2CD-GFP (Arabidopsis)): binds

Further lines, results first:

binding (AP2σ-MBP (Arabidopsis)): binds
B1: ERECTACD-GST (domain or fragment, UniProt Q42371 602-976)
chain: CRPHNPPPFLDGSLDKPVTYSTPKLVILHMNMALHVYEDIMRMTENLSEKYIIGHGASSTVYKCVLKNCKPVAIKRLYSHNPQSMKQFETELEMLSSIKHRNLVSLQAYSLSHLGSLLFYDYLENGSLWDLLHGPTKKKTLDWDTRLKIAYGAAQGLAYLHHDCSPRIIHRDVKSSNILLDKDLEARLTDFGIAKSLCVSKSHTSTYVMGTIGYIDPEYARTSRLTEKSDVYSYGIVLLELLTRRKAVDDESNLHHLIMSKTGNNEVMEMADPDITSTCKDLGVVKKVFQLALLCTKRQPNDRPTMHQVTRVLGSFMLSEQPPAATDTSATLAGSCYVDEYANLKTPHSVNCSSMSASDAQLFLRFGQVISQNSE

binding (AP2σ-MBP (Arabidopsis)): binds
B2: ERL1CD-GST (domain or fragment, UniProt C0LGW6 604-966)
chain: YKSMQQKKILQGSSKQAEGLTKLVILHMDMAIHTFDDIMRVTENLNEKFIIGYGASSTVYKCALKSSRPIAIKRLYNQYPHNLREFETELETIGSIRHRNIVSLHGYALSPTGNLLFYDYMENGSLWDLLHGSLKKVKLDWETRLKIAVGAAQGLAYLHHDCTPRIIHRDIKSSNILLDENFEAHLSDFGIAKSIPASKTHASTYVLGTIGYIDPEYARTSRINEKSDIYSFGIVLLELLTGKKAVDNEANLHQLILSKADDNTVMEAVDPEVTVTCMDLGHIRKTFQLALLCTKRNPLERPTMLEVSRVLLSLVPSLQVAKKLPSLDHSTKKLQQENEVRNPDAEASQWFVQFREVISKSSI

binding (AP2σ-MBP (Arabidopsis)): binds
B3: ERL2CD-GST (domain or fragment, UniProt Q6XAT2 607-967)
chain: YKSKQQKPVLKGSSKQPEGSTKLVILHMDMAIHTFDDIMRVTENLDEKYIIGYGASSTVYKCTSKTSRPIAIKRIYNQYPSNFREFETELETIGSIRHRNIVSLHGYALSPFGNLLFYDYMENGSLWDLLHGPGKKVKLDWETRLKIAVGAAQGLAYLHHDCTPRIIHRDIKSSNILLDGNFEARLSDFGIAKSIPATKTYASTYVLGTIGYIDPEYARTSRLNEKSDIYSFGIVLLELLTGKKAVDNEANLHQMILSKADDNTVMEAVDAEVSVTCMDSGHIKKTFQLALLCTKRNPLERPTMQEVSRVLLSLVPSPPPKKLPSPAKVQEGEERRESHSSDTTTPQWFVQFREDISKSSL
